Among all 580,000 compounds or so, about 6,100 (1.1%) were called active. Inconclusive means that the source gave no clear call. Such entries were picked first, then a sample of the others. Calls come from the whole dose curve; as a rule, active = well fitted inhibition curve with a large enough effect; inconclusive = small, poorly fitted or top-dose-only effect, or another doubt; inactive = no such curve, though single readings can be large or run the other way. Potencies of inconclusive entries are doubtful fits and often do not repeat.
Each compound was assayed against Polyunsaturated fatty acid lipoxygenase ALOX12 (Homo sapiens) (UniProt P18054) (assay: Primary qHTS assay for inhibitors of human arachidonate 12S-lipoxygenase (ALOX12): Round 2). Conditions: purified 12hLO, xylenol orange hydroperoxide absorbance; activity change, negative = inhibition: at 108 µM (top of the series) unless noted.
Method in brief: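 Purified human 12hLO (150 nM final) in 25 mM Hepes, 0.01% Triton X-100, pH 7.0 was preincubated 15 min at room temperature with compound. Then 40 uM arachidonic acid was added, 30 min. Hydroperoxide was read by Fe-XO absorbance ratio 573/405 nm.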
% is set by controls: 0 for no effect and ±100 for the full control effect; potency is the fitted concentration of half-maximal effect.

Amino acid sequences for entries named in this document (tags omitted). A change or cut given only in a name is not applied to a line headed by its entry.
UniProt P18054: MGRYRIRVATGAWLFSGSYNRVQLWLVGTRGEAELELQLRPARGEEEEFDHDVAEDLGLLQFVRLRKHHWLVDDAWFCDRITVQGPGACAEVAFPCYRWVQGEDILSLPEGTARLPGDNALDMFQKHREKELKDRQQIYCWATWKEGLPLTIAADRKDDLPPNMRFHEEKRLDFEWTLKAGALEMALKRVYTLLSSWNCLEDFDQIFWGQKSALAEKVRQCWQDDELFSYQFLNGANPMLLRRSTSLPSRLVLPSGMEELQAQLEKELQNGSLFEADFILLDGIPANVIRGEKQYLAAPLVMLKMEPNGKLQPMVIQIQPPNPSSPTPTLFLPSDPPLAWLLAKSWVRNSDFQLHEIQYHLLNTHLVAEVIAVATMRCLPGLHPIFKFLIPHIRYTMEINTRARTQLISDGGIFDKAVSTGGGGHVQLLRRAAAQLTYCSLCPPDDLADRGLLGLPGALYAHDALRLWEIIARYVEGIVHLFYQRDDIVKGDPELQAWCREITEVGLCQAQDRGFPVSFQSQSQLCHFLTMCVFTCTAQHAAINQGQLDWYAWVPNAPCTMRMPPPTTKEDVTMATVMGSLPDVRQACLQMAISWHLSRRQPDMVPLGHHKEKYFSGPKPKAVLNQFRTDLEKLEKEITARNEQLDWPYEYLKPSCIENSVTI

Which Potency does the source give for `Cc1noc(C)c1C(=O)N1CCC1(C)C(=O)NS(=O)(=O)c1ccc(Cl)cc1` (stereo not given) here?
The Potency was inconclusive: 14.1 µM [inhibitor, partial curve, poor fit].

With `COc1ccc(N(C(=O)c2ccc(S(=O)(=O)N3CCCCC3)cc2)C2C=CS(=O)(=O)C2)cc1` (stereo not given) as the compound, how does the “activity change, negative = inhibition” value read?
The value was inactive: 41.1%.

Which Potency does the source give for `CC(=O)N1CCN(c2ccc(NS(=O)(=O)c3ccc(C)cc3)cc2)CC1` here?
The Potency was inconclusive: 79.4 µM [inhibitor, partial curve, poor fit].

How did the Potency turn out when `O=C(CN1C(=O)NC2(CCCCC2)C1=O)Nc1ccc(F)cc1F` was run?
Its Potency is inconclusive: 2.24 µM [inhibitor, full curve, poor fit].

`CC(=O)N1CCCC(c2nnc3n2CCNC3)C1` (stereo not given) was tested. Which Potency did it give?
Its Potency is inconclusive: 4.46 µM [inhibitor, single point].

For `CC(C)C(Nc1ccc([N+](=O)[O-])cn1)c1ccc(Cl)cc1` (stereo not given), which Potency is on record?
The Potency was inconclusive: 44.7 µM [inhibitor, partial curve, poor fit].

For `CC(C)(C)NC(=O)C(c1ccccc1F)n1c(=O)c(-c2ccco2)nc2ccccc21` (stereo not given), which Potency is on record?
Its Potency is inconclusive: 44.7 µM [inhibitor, partial curve, poor fit].

`O=C(Nc1cccc(C(F)(F)F)c1)c1csc(-c2ccncc2)n1` was tested. Which “activity change, negative = inhibition” value did it give?
The value was inactive: -12.4%.

With `N#Cc1c(NC(=O)/C=C/c2ccco2)sc2c1CCCC2` as the compound, how does the Potency read?
Its Potency is active: 35.5 µM.

Which Potency does the source give for `Cc1cc(OCCN2CCOCC2)nc2ccccc12` here?
The Potency was inconclusive: 35.5 µM [inhibitor, single point].

How did the Potency turn out when `O=C(Nc1ccc(Cl)cc1)C1C2CCCCC21` (stereo not given) was run?
Its Potency is inconclusive: 35.5 µM [inhibitor, partial curve, poor fit].

How did the Potency turn out when `CCCc1cc(=O)n2[nH]c(NC(=O)Cc3ccccc3)nc2n1` was run?
Its Potency is inconclusive: 1.78 µM [inhibitor, full curve, poor fit].

For `COc1ccccc1N1CCN(S(=O)(=O)c2ccc(-c3cc(C(F)(F)F)on3)s2)CC1`, which Potency is on record?
Its Potency is inconclusive: 200 µM [inhibitor, partial curve, poor fit].

Which Potency does the source give for `NC(=O)Cc1ccc(C(=O)CSc2nnc(-c3ccncc3)n2C2CC2)s1` here?
The Potency was inconclusive: 50.1 µM [inhibitor, partial curve, poor fit].

How did the Potency turn out when `CC(C)(C)c1ccccc1NC(=O)c1ccc2ccccc2n1` was run?
The Potency was inconclusive: 22.4 µM [inhibitor, partial curve, poor fit].

`COC(=O)c1ccc(NC(=O)c2ccc(CNC(=O)OC(C)(C)C)cc2)cc1` was tested. Which “activity change, negative = inhibition” value did it give?
Its value is inactive: -5.47%.

How did the Potency turn out when `COc1cccc(-n2c(N)c(-c3nc4ccccc4[nH]3)sc2=S)c1` was run?
Its Potency is inconclusive: 79.4 µM [inhibitor, partial curve, poor fit].

For `COc1ccc(C(=O)Nc2cccc(/C=C/c3nc4ccccc4c(=O)[nH]3)c2)cc1`, which Potency is on record?
The Potency was inconclusive: 50.1 µM [inhibitor, partial curve, poor fit].

For `CCOc1ccc(Nc2n[nH]c(=S)s2)cc1`, which Potency is on record?
Its Potency is inconclusive: 35.5 µM [inhibitor, partial curve].

With `CCOc1ccc(OCC)c(NC(=O)CN2CCN(C(=O)c3ccco3)CC2)c1` as the compound, how does the “activity change, negative = inhibition” value read?
Its value is inactive: 0% [at 57.4 µM].

Which “activity change, negative = inhibition” value does the source give for `Cc1cc(NC(=O)Cc2csc(-c3ccccc3)n2)ccc1Br` here?
The value was inactive: -18.1%.

With `Cc1ccc2cc(CN(Cc3ccccc3)C(=O)c3ccco3)c(=O)[nH]c2c1` as the compound, how does the Potency read?
Its Potency is inconclusive: 50.1 µM [inhibitor, partial curve, poor fit].

`CCc1cccc(NC(=O)CSC2=NS(=O)(=O)c3ccccc32)c1` was tested. Which Potency did it give?
The Potency was inconclusive: 31.6 µM [inhibitor, partial curve, poor fit].

How did the “activity change, negative = inhibition” value turn out when `CN(Cc1ccccc1)C(=S)Nc1ccc(OC(F)F)cc1` was run?
Its value is inactive: -4.3%.

For `C=CCNc1oc(-c2ccco2)nc1S(=O)(=O)c1ccc2c(c1)OCCO2`, which Potency is on record?
Its Potency is inconclusive: 5.01 µM [inhibitor, full curve].

`c1ccc(CNc2nc(NCc3ccccc3)c3ccccc3n2)cc1` was tested. Which Potency did it give?
The Potency was inconclusive: 38.5 µM [inhibitor, partial curve].

For `O=C(O)c1ccc(-c2cccc3ccccc23)s1`, which Potency is on record?
The Potency was inconclusive: 44.7 µM [inhibitor, partial curve, poor fit].

For `Cc1cccc(NC(=O)C2CCN(C(=O)[C@@H]3Cc4ccccc4CN3)CC2)c1`, which Potency is on record?
The Potency was inconclusive: 44.7 µM [inhibitor, partial curve, poor fit].

How did the “activity change, negative = inhibition” value turn out when `CCOC(=O)c1cc(NC(=O)c2ccccc2)c(=O)oc1C(F)(F)F` was run?
Its value is inactive: -0.838%.

`CC1(C(=O)NS(=O)(=O)c2ccccc2Cl)CCN1C(=O)CCc1ccccc1` (stereo not given) was tested. Which Potency did it give?
The Potency was inconclusive: 79.4 µM [inhibitor, partial curve, poor fit].

For `COc1cc(OC)c2ccc(=O)oc2c1C(CCN1CCCC(C)C1)c1ccc2c(c1)OCO2` (stereo not given), which “activity change, negative = inhibition” value is on record?
The value was inactive: -55.7%.

Which Potency does the source give for `CCc1nc2ccccc2c(C(=O)OCC(=O)NC(N)=O)c1C` here?
The Potency was inconclusive: 35.5 µM [inhibitor, partial curve, poor fit].

For `COc1ccc(NC(=O)Nc2ccc(OCc3ccccc3)cc2)cn1`, which Potency is on record?
The Potency was inconclusive: 112 µM [inhibitor, single point].

`COc1cc(OC)c(OC)cc1CN1CCc2nc(N3CCN(c4ncccn4)CC3)ncc2C1` was tested. Which Potency did it give?
Its Potency is inconclusive: 44.7 µM [inhibitor, partial curve, poor fit].

For `Cc1cccc(OCCSc2nc3ccccc3n2CCC(=O)O)c1`, which Potency is on record?
Its Potency is inconclusive: 17.8 µM [inhibitor, partial curve].

Which Potency does the source give for `Cn1cnc(C(=O)N2[C@@H]3CC[C@H]2CC(NC(=O)c2ccncc2)C3)c1` (stereo not given in full) here?
Its Potency is inconclusive: 3.16 µM [inhibitor, full curve].

For `COc1cc(C#N)ccc1OCc1ccc(OC(F)F)c(OC)c1`, which “activity change, negative = inhibition” value is on record?
The value was inactive: -4.3%.

For `CNC(=S)N1CCN(c2c(F)cc3c(=O)c(C(=O)O)cn(C4CC4)c3c2OC)CC1C` (stereo not given), which Potency is on record?
Its Potency is inconclusive: 7.08 µM [inhibitor, full curve, poor fit].

Which Potency does the source give for `CC1CCC(NC(=O)c2ccc3c(c2)N(Cc2cccc(F)c2)C(=O)c2ccccc2S3)CC1` (stereo not given) here?
Its Potency is inconclusive: 50.1 µM [inhibitor, partial curve, poor fit].

How did the Potency turn out when `CCCCNC(=S)N1CCN(CC)CC1` was run?
The Potency was inconclusive: 15.8 µM [inhibitor, full curve].

`COc1ccccc1CNC(=O)CSc1ncc2c(n1)-c1ccccc1N(Cc1ccc(C)cc1)S2(=O)=O` was tested. Which Potency did it give?
The Potency was inconclusive: 112 µM [inhibitor, partial curve, poor fit].

How did the “activity change, negative = inhibition” value turn out when `CCN1CCN(C(=O)c2ccc3c(c2)N(Cc2cccc(Cl)c2)C(=O)c2ccccc2S3(=O)=O)CC1` was run?
Its value is inactive: -23.7%.

For `CC(=O)C1=C(C)N(Cc2ccc(Cl)cc2)C(=S)NC1c1ccc(F)cc1` (stereo not given), which Potency is on record?
The Potency was active: 44.7 µM.

For `O=C(O)c1cccc(OCC2CCCO2)c1` (stereo not given), which Potency is on record?
Its Potency is inconclusive: 100 µM [inhibitor, single point].

Which Potency does the source give for `C/C(=N\O)C(C)(C)Nc1cccc(F)c1` here?
The Potency was inconclusive: 112 µM [inhibitor, single point].

Which Potency does the source give for `N#CC1=C(N)OC2=C(C(=O)CCC2)C1C1C=CCCC1` (stereo not given) here?
The Potency was inconclusive: 44.7 µM [inhibitor, partial curve, poor fit].

`CC(=O)N(Cc1cc(=O)[nH]c2ccccc12)c1cccc(C)c1` was tested. Which Potency did it give?
The Potency was inconclusive: 39.8 µM [inhibitor, partial curve, poor fit].

`Cc1ccc(CN2CCN(C(=O)C3(Cc4cccnc4)CCCCC(=O)N3)CC2)cc1` (stereo not given) was tested. Which “activity change, negative = inhibition” value did it give?
The value was inactive: 13.9%.

How did the Potency turn out when `CCOC(=O)N1CCC(N2CCCC(C(=O)c3cc(C)c(OC)c(C)c3)C2)CC1` (stereo not given) was run?
Its Potency is inconclusive: 79.4 µM [inhibitor, partial curve, poor fit].

For `O=C(NC1CC1)c1ccc(Sc2ccccn2)cc1`, which “activity change, negative = inhibition” value is on record?
Its value is inactive: -4.58%.

`COc1ccc(-c2sc(Nc3ccccc3)n[n+]2-c2ccccc2)cc1Br` was tested. Which Potency did it give?
The Potency was inconclusive: 50.1 µM [inhibitor, partial curve, poor fit].

For `Fc1ccccc1OCCCCN1CCCCC1`, which Potency is on record?
The Potency was inconclusive: 2.82 µM [inhibitor, full curve, poor fit].

Which Potency does the source give for `C#CCN1Cc2ccccc2Oc2cc(Br)ccc2S1(=O)=O` here?
The Potency was inconclusive: 50.1 µM [inhibitor, partial curve, poor fit].

Which Potency does the source give for `CC(=O)C1=C(C)N(Cc2ccc(Br)cc2)C(=S)NC1c1ccc(F)cc1` (stereo not given) here?
The Potency was active: 35.5 µM.

For `Cc1ccn2cc(-c3ccccc3)cc2c1`, which Potency is on record?
Its Potency is active: 31.6 µM.

`Cc1ccc(OCC(=O)Nc2ccc(C(=O)OCc3cc(=O)n4nc(C5CC5)sc4n3)cc2)cc1` was tested. Which “activity change, negative = inhibition” value did it give?
Its value is inactive: -15.2%.

`Cc1cc(C)cc(NC(=O)CC2CC3CCC2C3)c1` (stereo not given) was tested. Which activity change, negative = inhibition did it give?
The activity change, negative = inhibition was inconclusive: -31.3% [inhibitor].

Which Potency does the source give for `CC(C)CCn1cnc2c1c(=O)n(Cc1ccccc1C#N)c(=O)n2Cc1ccccc1` here?
The Potency was inconclusive: 158 µM [inhibitor, partial curve, poor fit].

With `CCOC(=O)NC(=O)/C(C#N)=N/Nc1ccc(F)cc1` as the compound, how does the Potency read?
Its Potency is inconclusive: 56.2 µM [inhibitor, partial curve, poor fit].

How did the “activity change, negative = inhibition” value turn out when `CCc1ccc(NC(=O)c2cc3ccccn3n2)cc1` was run?
The value was inactive: -14.7%.

With `CCCC(C)NC(=O)CN(c1ccccc1OC)S(C)(=O)=O` (stereo not given) as the compound, how does the Potency read?
Its Potency is inconclusive: 39.8 µM [inhibitor, single point].

For `CCN(C[C@H]1N[C@@](C)(C(=O)OC)[C@H]2C(=O)N(C)C(=O)[C@@H]12)C(=O)COc1ccccc1`, which Potency is on record?
Its Potency is inconclusive: 31.6 µM [inhibitor, partial curve, poor fit].

With `Cc1onc(-c2ccccc2)c1C(=O)N1CCN(S(=O)(=O)c2ccccc2Br)CC1` as the compound, how does the “activity change, negative = inhibition” value read?
Its value is inactive: -28.9%.

With `CCCc1ccc2oc(C(=O)N(C)CCn3ccnc3C)c(C)c2c1` as the compound, how does the Potency read?
The Potency was inconclusive: 126 µM [inhibitor, single point].

`O=C(CSc1nc(=O)[nH]c2c1CCCC2)Nc1cc(C(F)(F)F)ccc1Cl` was tested. Which Potency did it give?
The Potency was inconclusive: 126 µM [inhibitor, partial curve, poor fit].

From PubChem BioAssay AID1671190 (National Center for Advancing Translational Sciences (NCATS), 2021)
